In article PMC7819943, “Rice protein-binding microarrays: a tool to detect cis-acting elements near promoter regions in rice”:
The other results are listed elsewhere or left out.

Protein sequences, listed by entry. Tags and fused reporters are not part of them.
UniProt Q0JBA9, entry or part of it: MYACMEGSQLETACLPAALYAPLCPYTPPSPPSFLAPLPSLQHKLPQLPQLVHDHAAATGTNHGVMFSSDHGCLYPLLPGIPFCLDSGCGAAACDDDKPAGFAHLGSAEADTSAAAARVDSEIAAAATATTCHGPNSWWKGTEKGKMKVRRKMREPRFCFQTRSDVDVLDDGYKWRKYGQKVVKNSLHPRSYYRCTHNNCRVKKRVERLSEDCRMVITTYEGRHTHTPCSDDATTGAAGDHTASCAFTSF

Molecular target: OsWRKY34 (Oryza sativa, UniProt Q0JBA9 1-250)
Assay: protein-binding microarray (RPBM); PBS, 2% BSA, 51.3 ng/ul salmon testes DNA, 50 uM zinc acetate, 200 nM TF, 25 C, 1 h; high values mean tight binding
Conditions: protein: recombinant; tags: N-terminal polyhistidine and DsRed monomer fusion (pET32a); label: CyDye5-dUTP incorporated in the synthesized complementary strand; 3' TTTTT single-stranded linker to array surface; dsDNA, one strand shown
Procedure, shortened: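 Polyhistidine-tagged DsRed fusions of transcription factors, joined at the N-terminus, were expressed in E. coli BL21-CodonPlus and isolated on Ni–NTA. They were incubated at 200 nM for 1 h at 25 °C on a custom Agilent array, double-stranded and BSA-blocked, in PBS with 2% BSA, salmon testes DNA and 50 µM zinc acetate. The binding signal is per-feature fluorescence intensity (arbitrary units) read on an Axon 4000B scanner after washing.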

Row | Sequence | binding signal
1 | TCTCCTATTCCATATCATCAACTTGTTCTTTTGCTAGTAGCGGAGTCACCTAGTGCAG | 8030 fluorescence intensity (a.u.)
2 | TCCTTTTCTCTCTGCGCCCATCTACTGTTGGTACTGAACTCGGAGTCACCTAGTGCAG | 9020 fluorescence intensity (a.u.)
3 | GATCGATCCGAGCTCCTTCCACCACACTCTCTCGCCGATGCGGAGTCACCTAGTGCAG | 8210 fluorescence intensity (a.u.)
4 | CTGGATGTGGCGATGAATTCGGTTGCCGTGCTTGGGGATGCGGAGTCACCTAGTGCAG | 8720 fluorescence intensity (a.u.)
5 | TCAGCCAAGAACGAGTTCATCTTCTTCTTCGTGTTGTTGTCGGAGTCACCTAGTGCAG | 11100 fluorescence intensity (a.u.)
6 | GATGGGATTGGGACAAAGATATGAGTGGAGGGTTGAGATGCGGAGTCACCTAGTGCAG | 8600 fluorescence intensity (a.u.)
7 | TTCTGTTTGACTATTTTGATTCAAAGGATTGAAGCTTTCCCGGAGTCACCTAGTGCAG | 9160 fluorescence intensity (a.u.)
8 | ACCAATTTCGCATGTGCGACCCGTGCAGCCCATCTCACGACGGAGTCACCTAGTGCAG | 8790 fluorescence intensity (a.u.)
9 | ACGTTGGCACTGACTTTTCAATTTTCACTCTCCATTCAGTCGGAGTCACCTAGTGCAG | 11000 fluorescence intensity (a.u.)
10 | ATTATTATATTGTATATTCGGCATTCTGCGTGTTAATTAACGGAGTCACCTAGTGCAG | 8930 fluorescence intensity (a.u.)
11 | GTTTCAAAATGTTTGACACCGTTGACTTTTTAGTACGTGTCGGAGTCACCTAGTGCAG | 22500 fluorescence intensity (a.u.)
12 | GCTTTGCCTTCTTATATATCCCTACTACTACTACAGCATCCGGAGTCACCTAGTGCAG | 9880 fluorescence intensity (a.u.)
13 | TATGTTTTTCTTTTTCCTGTGTTTTCTCAATCCTATGTTTCGGAGTCACCTAGTGCAG | 9980 fluorescence intensity (a.u.)
14 | TGGTTTTGTATAGTTTAGGGGTGAAGATTTCTGGTTTTGTCGGAGTCACCTAGTGCAG | 8360 fluorescence intensity (a.u.)
15 | TACTGGCTGTATCCATTTCTTGTATGTATTGTTTATGTATCGGAGTCACCTAGTGCAG | 8770 fluorescence intensity (a.u.)
16 | CGAACCGCCTGCCGAACAACGCGCAACCTCTCTCTCTCTCCGGAGTCACCTAGTGCAG | 9830 fluorescence intensity (a.u.)
17 | TATTATGCCCAGTTCGCCACCCAAAATATCTCGTCTTTTCCGGAGTCACCTAGTGCAG | 12000 fluorescence intensity (a.u.)
18 | GAAATACGCGTTCGCTATACAGGTTACGTACTCTCTGCTCCGGAGTCACCTAGTGCAG | 10500 fluorescence intensity (a.u.)
19 | CCCTGGCAAATGTTCTTTCTCCTCTATTTTCCATCTCCAACGGAGTCACCTAGTGCAG | 9120 fluorescence intensity (a.u.)
20 | ATTTTTTTTCTTGCTACCTCTCTCATCCACGTAAGTTTATCGGAGTCACCTAGTGCAG | 9690 fluorescence intensity (a.u.)
21 | CTGTTTTTATTCCTAATCATGAGTATATATGACATGTCTACGGAGTCACCTAGTGCAG | 8700 fluorescence intensity (a.u.)

Shown as a markdown table: part of the list above

| Row | Sequence | binding signal |
| --- | --- | --- |
| 5 | TCAGCCAAGAACGAGTTCATCTTCTTCTTCGTGTTGTTGTCGGAGTCACCTAGTGCAG | 11100 fluorescence intensity (a.u.) |
| 10 | ATTATTATATTGTATATTCGGCATTCTGCGTGTTAATTAACGGAGTCACCTAGTGCAG | 8930 fluorescence intensity (a.u.) |

The listing continues.

Row | Sequence | binding signal
22 | GCACCCTTCCTATTATTCCAATTATTCCATTTGTATGAAACGGAGTCACCTAGTGCAG | 8590 fluorescence intensity (a.u.)
23 | GCACGTTCACATTGTCGTCACGAAATAGAGTTCTTTGATGCGGAGTCACCTAGTGCAG | 8100 fluorescence intensity (a.u.)
24 | CACCTCCACTGCCCCGACCTCCATGGCTTCAGTCCCCAGTCGGAGTCACCTAGTGCAG | 9120 fluorescence intensity (a.u.)
25 | GCGGCCTTTTTGTTTACTGTTTTCTCTGTGCTTGAGTTATCGGAGTCACCTAGTGCAG | 9820 fluorescence intensity (a.u.)
26 | TCAAATCCAAGTGCACCACCCTCAACTTTGTTAGCTTCTTCGGAGTCACCTAGTGCAG | 13200 fluorescence intensity (a.u.)
27 | GCATGATTTTAAATCTTACATTAACTTTTGCATATATTCACGGAGTCACCTAGTGCAG | 9530 fluorescence intensity (a.u.)
28 | GCCTGCCAAGTGATGATCGTCCCGTTGACCCAAATTTTCGCGGAGTCACCTAGTGCAG | 14200 fluorescence intensity (a.u.)
29 | GGGTCCACATCTCTCTCCTATCCTCTTCTTCCTCACGCACCGGAGTCACCTAGTGCAG | 9390 fluorescence intensity (a.u.)
30 | TTGCTTGAGAAGTTCCATACATTGATTTTTGCAGACTGAACGGAGTCACCTAGTGCAG | 8990 fluorescence intensity (a.u.)
31 | ATTCTACATGTCACATATTACGTCCATTTGAGTTCAATTTCGGAGTCACCTAGTGCAG | 9350 fluorescence intensity (a.u.)
32 | TAGATGTGGGCTCCTTCTTTCTATGTGTTTCCTACCAGCTCGGAGTCACCTAGTGCAG | 9680 fluorescence intensity (a.u.)
33 | ACCTCACATAAGCTAAAAAAGCTTCTCCAACCTAGTTTTTCGGAGTCACCTAGTGCAG | 9340 fluorescence intensity (a.u.)
34 | CCAGCCCCTTCGACTTCCCGCCCTCGCACCATTTCCGTGACGGAGTCACCTAGTGCAG | 10800 fluorescence intensity (a.u.)
35 | ACTTTGTTTCCTTCCTTCTTGGACGTTATCTCTCACATTCCGGAGTCACCTAGTGCAG | 11200 fluorescence intensity (a.u.)
36 | GGCCAACATCACCATGTCAACATCGATCGCCGTCGACCTACGGAGTCACCTAGTGCAG | 10600 fluorescence intensity (a.u.)
37 | GTCAACGATCCGGCGTCTGTTCCACTTCTACCCTCCCATCCGGAGTCACCTAGTGCAG | 8250 fluorescence intensity (a.u.)
38 | AGGGAAGCACTAGCCACCATAGAACTCTCTCTCTTTTTCTCGGAGTCACCTAGTGCAG | 9550 fluorescence intensity (a.u.)
39 | TAAGTTCAGTTCCATTCCATCCACCAGTCGGCGTGACACTCGGAGTCACCTAGTGCAG | 8470 fluorescence intensity (a.u.)
40 | TGGATCCGCCCTGTAAGTCCACGGCCACCTACTCCATCGTCGGAGTCACCTAGTGCAG | 8750 fluorescence intensity (a.u.)
41 | GGGTTAATTGCATTTGGTCTTGTGGATATGCACGTGATTTCGGAGTCACCTAGTGCAG | 8640 fluorescence intensity (a.u.)
42 | CTCATCTAGGTTTGGATAGGTGTTTGACTACTAATTCATACGGAGTCACCTAGTGCAG | 8800 fluorescence intensity (a.u.)
